Measurements as given in PubChem BioAssay AID1508600 (Functional Genomics Laboratory (NCATS/FGL), 2020).
The campaign covered roughly 53,000 sequences. About 3,700 (7%) were called active.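 How the source made its calls: active means gene knockdowns whose robust z-score for IL-1 alpha signal is at least 2 or at most -2, so actives lie on both sides; inactive means the rest.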 Some of the results follow.

Assay: Components of the Cytosolic LPS Sensing Pathway: Gene Identification via Genome-wide siRNA Screen;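 further: robust z of the log signal after scaling to non-targeting control siRNA wells of the plate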
Settings: RAW264.7 macrophages, IL-1a HTRF, actives lie on both sides, screened at 100 nM (by protocol), cells primed 5 h with Pam3CSK4 first
Procedure, shortened: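 Supernatant IL-1a by HTRF from RAW264.7 cells primed with Pam3CSK4 (5 hours) and transfected with LipidA (24 hour) after 48h siRNA knockdown at 100 nM; cell viability checked with CellTiter-Glo.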
For GCCGUUCAUUUCAACCGUGTT against Wdr5, the z-score was inactive: -0.0339.
For GCAGGUGAUUGUGAUUGAATT against Ddx46, the z-score was inactive: 0.842.
For GGUACACUUUGAAGACAAUTT against Tmem72, the z-score was inactive: 1.47.
With GCACUUUUCAGUGAUAACATT against Zbed5 the z-score was inactive: -0.405.
In the case of GCGAAUGCAUGAAAACUCATT against Nkapd1, the z-score is reported as inactive: -0.386.
For GCUUGGCCGUGAUUGUUGCTT against Fndc10, the z-score was active: 2.35.
For GGUGCUGCAUGUGAAGAUGTT against Atf6b, the z-score was inactive: 0.222.
In the case of GGAAGAAGAGCUCUUUAAATT against Acot9, the z-score is reported as inactive: 1.37.
For GGAGAAUUACGGUGCCAACTT against Ncoa3, the z-score was inactive: -0.354.
For CCACAGAGUUCCUAUACAATT against Pfkl, the z-score was active: -2.52.
With GCUACAGGAGUCGACUUCATT against Lef1 the z-score was inactive: -0.348.
With GGAAAGUGGACACCUUCCATT against Vezt the z-score was inactive: 1.2.
For GGUACAUAUGUGAUGACCGTT against Cdh4, the z-score was inactive: -0.289.
For GGAGCUUAAGCAGUUCACATT against Traf5, the z-score was inactive: -1.06.
For GGAUAAUCAUUCUUGUCACTT against Ptgfr, the z-score was inactive: -0.736.
For CCAGUGUGAUCAAAAACACTT against Cc2d1a, the z-score was inactive: 0.112.
For GGACUAUAGAUCCUAAGUCTT against Kcnab2, the z-score was inactive: -0.246.
With GCGAGAGAUCCCUCUGAAATT against Pigs the z-score was inactive: -0.284.
In the case of GCUGUACCUAGAACACAACTT against Fmod, the z-score is reported as inactive: 1.7.
For “CGGAAGGAGAGAAUGACAGTT against 1110008P14Rik”, the z-score was inactive: -0.901.
In the case of GCAGCAGUUAAACAACCUUTT against Gstcd, the z-score is reported as inactive: 0.579.
With CGCGAUUCAGCUCAUUCUCTT against Slitrk1 the z-score was inactive: 0.83.
In the case of CCAACCUUGCCCAUUUCCATT against Lsp1, the z-score is reported as inactive: -0.779.
For GCAGGCAUCAUUACAAAAATT against Gnl2, the z-score was inactive: 0.245.
With GGAAGCUACCCAGAUGGAUTT against Dgkd the z-score was inactive: 1.14.
With GGAUGAGUUGUCAUUGAUATT against Nck1 the z-score was inactive: 0.998.
For GAAGCUGUCCUCAGCUCCATT against Olfr491, the z-score was inactive: -0.485.
In the case of GGUGUUUUUAUGUGAACUUTT against Homer2, the z-score is reported as inactive: 0.851.
For GGAGGAAAAACAGUGCAGATT against Smchd1, the z-score was inactive: -1.54.
For GCCGAGCUCAUCAUCAUGATT against Prss40, the z-score was active: 2.5.
In the case of GGCAUGCUGGAAUCAAACATT against Dppa2, the z-score is reported as inactive: 0.699.
For GCUGAUCCACGACUACUUGTT against Rab10os, the z-score was inactive: 1.24.
With CCUUCGUAAAACAGAUUGATT against Elp1 the z-score was inactive: 0.129.
In the case of GGACAUCCGAGCCAUUCUATT against Spata2, the z-score is reported as inactive: -0.408.
In the case of GACAAGCUGUGGAGAAGUGTT against Lce1b, the z-score is reported as inactive: 0.298.
For GCUAUUACGGUAAUCGAGCTT against Dnajc7, the z-score was inactive: 0.721.
With GGCAUCUGGUAACUUUUACTT against Trim59 the z-score was inactive: -0.451.
In the case of GGAGCAAGCUCAGCUUACCTT against Ube3a, the z-score is reported as inactive: -0.207.
For GCAAAAACCGUGAUGUGUATT against Lin37, the z-score was inactive: -0.836.
For CCAAGUAUUACGGAACAUCTT against Ttc6, the z-score was inactive: -0.0894.
For GGAAUAUGCAUAUUCAUGATT against Olfr350, the z-score was inactive: 0.723.
With CCACUUUUAAAGGAAUGUGTT against Ncoa1 the z-score was inactive: 1.8.
With “GGAAGGUCAUGUGAAUAUCTT against A930002I21Rik” the z-score was inactive: -1.6.
For GGUCUAAGACUAAAUAUCCTT against Sfxn1, the z-score was inactive: 0.396.
In the case of GGACUGACACGGGUGUCUUTT against Xxylt1, the z-score is reported as inactive: -0.21.
With GGCAUUGGAGAAUUGAAAATT against Sptlc2 the z-score was inactive: -0.101.
For CCUUCAUCUAGAAACCAAGTT against Tmem161b, the z-score was inactive: -0.0464.
With GCAGCUGAAUACAGUCUGCTT against Nlrp9c the z-score was inactive: -0.0389.
In the case of GGAGCAACCAUCCUUGUAUTT against Tmem35a, the z-score is reported as inactive: -0.525.
With GCCAUGUACACAGACAGUUTT against Mcm10 the z-score was inactive: 0.553.
In the case of GGAUGAGGAGGUCUUUUCUTT against Pde6c, the z-score is reported as inactive: 1.65.
With CGCUGUUUGUUCAAGAGGATT against Thbs1 the z-score was inactive: 1.05.
For GGCAUACAGUUUUGGCAGUTT against Pilra, the z-score was inactive: 0.0977.
With GGGACUCCCAGGCUGUAAATT against Zfp263 the z-score was inactive: -1.38.
